Results are given in words; binding and its absence hold for the method and conditions named. Some entries that bind do so weakly or less than the wild type. Where a sequence is shown, tags or fusion partners need not be part of it.
Molecular target: TIR-1::3xFLAG (C. elegans TIR-1/SARM1 tagged from its endogenous locus with a 3xFLAG sequence) (C. elegans) (UniProt Q86DA5)
Test: native gel or EMSA

B1: TIR-1::3xFLAG (C. elegans TIR-1/SARM1 tagged from its endogenous locus with a 3xFLAG sequence) (protein, UniProt Q86DA5 1-981)
chain: MLPNRKPPRPSPSFQSLNNNNQRFPLRRSLKIAQAHSLPTVPSEDAKDDDLITPELSTDFDFREIQHRYLMALQNEQDGETTSTDDAFFELDDDDDLSSPSVPGSPVDPPSISVPLPPKSAPPCPTQPAPLTNGDLYPTILSNGTPIPNGRITPALSTVSVSLIHEARLQQSLSTPCNGSEEEMHNGQVRKESEYRRFKSEGSTAGASLPAAEKTHMDELSPVDQRSTSGTARFLIQQDSVVNPSTKMSNTEQVAMMHTLKTKLSKYQAMMDKAFEEIAKVEDANIIEGCTIVRKLMRKVWNTPKVSADLANALCDYLRDRDYFDKLIKMFISPNTAACDQVRMECGKVLEECTSSANLEYIVNKSYTKKIMIVAMKLNKTPDQQRLSLSLIGNLFKHSNAVSLSLIETDVIDHIILTFKRAPECPDILRHAALALANILLYTCFEGKKKIIQKKIPEWLFFLASQADDVTRYYACIAVCTIVSVKEFEPLVRKSDTMKLVEPFLQVHDPATFARDYHKYAQGNTKEWLERLLPMLQPSRRREARSVAAFHFTLEATIKKEQNKLDVFQEIGAIQALKEVASSPDEVAAKFASEALTVIGEEVPYKLAQQVPGWTCADVQYWVKKIGFEEYVEKFAKQMVDGDLLLQLTENDLKHDVGMISGLHRKRFLRELQTLKVAADYSSVDESNLDNFLMGLSPELSVYTYQMLTNGVNRSLLSSLTDEMMQNACGITNPIHRLKLTQAFETAKHPDDVEVAMLSKQIDVFISYRRSTGNQLASLIKVLLQLRGYRVFIDVDKLYAGKFDSSLLKNIQAAKHFILVLTPNSLDRLLNDDNCEDWVHKELKCAFEHQKNIIPIFDTAFEFPTKEDQIPNDIRMITKYNGVKWVHDYQDACMAKVVRFITGELNRTTPTTKEMPSISRKTTQQRWQTTNTVSRTGPSRSIGGPRMEPPTPTFTPTGSQERATSTRRKIQPSASTTSDRN
  binding: binds

Reference: article doi:10.1101/2024.02.16.580734
